# From the supplement of paper PMC8728848
# The list shows a part of the results.
# Experiments:
# Assay in all cases: glycan array binding signal (z-score within array); higher = stronger binding
# Conditions in all cases: glycan notation: IUPAC condensed, linker removed
# Neu5Ac(a2-3)GalNAc = biological target: Neu5Ac(a2-3)GalNAc
# Method in brief: (§1)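 The Consortium for Functional Glycomics database supplied 3228 glycan arrays, of which those lacking an available protein sequence were dropped. The binding signal, a within-array Z-score, was averaged across arrays of the same protein sequence and across linkers. Negative scores can be read as non-binding.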
# [1] = biological target: Neu5Ac(a2-3)GalNAc(b1-4)GlcNAc
# Method in brief: as §1
# [2] = biological target: Neu5Ac(a2-3)[GalNAc(b1-4)]Gal(b1-4)Glc
# Method in brief: as §1
# [3] = biological target: Neu5Ac(a2-3)[GalNAc(b1-4)]Gal(b1-4)GlcNAc
# Method in brief: as §1
# [4] = biological target: Neu5Ac(a2-3)[GalNAc(b1-4)]Gal(b1-4)GlcNAc(b1-3)GalNAc
# Method in brief: as §1
# [5] = biological target: Neu5Ac(a2-3)[Neu5Ac(a2-6)]GalNAc
# Method in brief: as §1
# Neu5Ac(a2-6)Gal = biological target: Neu5Ac(a2-6)Gal
# Method in brief: as §1
# [6] = biological target: Neu5Ac(a2-6)Gal(b1-3)GlcNAc(b1-3)[Gal(b1-4)GlcNAc(b1-6)]Gal(b1-4)Glc
# Method in brief: as §1
# Neu5Ac(a2-6)Gal(b1-4)Glc = biological target: Neu5Ac(a2-6)Gal(b1-4)Glc
# Method in brief: as §1
# [7] = biological target: Neu5Ac(a2-6)Gal(b1-4)GlcNAc
# Method in brief: as §1
# [8] = biological target: Neu5Ac(a2-6)Gal(b1-4)GlcNAc(b1-2)Man
# Method in brief: as §1
# [9] = biological target: Neu5Ac(a2-6)Gal(b1-4)GlcNAc(b1-2)Man(a1-3)Man(b1-4)GlcNAc(b1-4)GlcNAc
# Method in brief: as §1
# [10] = biological target: Neu5Ac(a2-6)Gal(b1-4)GlcNAc(b1-2)Man(a1-3)[Gal(b1-4)GlcNAc(b1-2)Man(a1-6)]Man(b1-4)GlcNAc(b1-4)GlcNAc
# Method in brief: as §1
# [11] = biological target: Neu5Ac(a2-6)Gal(b1-4)GlcNAc(b1-2)Man(a1-3)[GlcNAc(b1-2)Man(a1-6)]Man(b1-4)GlcNAc(b1-4)GlcNAc
# Method in brief: as §1
# [12] = biological target: Neu5Ac(a2-6)Gal(b1-4)GlcNAc(b1-2)Man(a1-3)[GlcNAc(b1-4)][Neu5Ac(a2-6)Gal(b1-4)GlcNAc(b1-2)Man(a1-6)]Man(b1-4)GlcNAc(b1-4)GlcNAc
# Method in brief: as §1
# [13] = biological target: Neu5Ac(a2-6)Gal(b1-4)GlcNAc(b1-2)Man(a1-3)[Man(a1-6)]Man(b1-4)GlcNAc(b1-4)GlcNAc
# Method in brief: as §1
# [14] = biological target: Neu5Ac(a2-6)Gal(b1-4)GlcNAc(b1-2)Man(a1-3)[Neu5Ac(a2-3)Gal(b1-4)GlcNAc(b1-2)Man(a1-6)]Man(b1-4)GlcNAc(b1-4)GlcNAc
# Method in brief: as §1
# [15] = biological target: Neu5Ac(a2-6)Gal(b1-4)GlcNAc(b1-2)Man(a1-3)[Neu5Ac(a2-6)Gal(b1-4)GlcNAc(b1-2)Man(a1-6)]Man(b1-4)GlcNAc(b1-4)GlcNAc
# Method in brief: as §1
# [16] = biological target: Neu5Ac(a2-6)Gal(b1-4)GlcNAc(b1-2)Man(a1-3)[Neu5Ac(a2-6)Gal(b1-4)GlcNAc(b1-2)Man(a1-6)]Man(b1-4)GlcNAc(b1-4)[Fuc(a1-6)]GlcNAc
# Method in brief: as §1
# [17] = biological target: Neu5Ac(a2-6)Gal(b1-4)GlcNAc(b1-2)Man(a1-6)Man(b1-4)GlcNAc(b1-4)GlcNAc
# Method in brief: as §1
# [18] = biological target: Neu5Ac(a2-6)Gal(b1-4)GlcNAc(b1-2)Man(a1-6)[Gal(b1-4)GlcNAc(b1-2)Man(a1-3)]Man(b1-4)GlcNAc(b1-4)GlcNAc
# Method in brief: as §1
# [19] = biological target: Neu5Ac(a2-6)Gal(b1-4)GlcNAc(b1-2)Man(a1-6)[GlcNAc(b1-2)Man(a1-3)]Man(b1-4)GlcNAc(b1-4)GlcNAc
# Method in brief: as §1
# [20] = biological target: Neu5Ac(a2-6)Gal(b1-4)GlcNAc(b1-2)Man(a1-6)[Man(a1-3)]Man(b1-4)GlcNAc(b1-4)GlcNAc
# Method in brief: as §1
# [21] = biological target: Neu5Ac(a2-6)Gal(b1-4)GlcNAc(b1-2)[Neu5Ac(a2-6)Gal(b1-4)GlcNAc(b1-4)]Man(a1-3)[GlcNAc(b1-4)][Neu5Ac(a2-6)Gal(b1-4)GlcNAc(b1-2)[Neu5Ac(a2-6)Gal(b1-4)GlcNAc(b1-6)]Man(a1-6)]Man(b1-4)GlcNAc(b1-4)GlcNAc
# Method in brief: as §1
# [22] = biological target: Neu5Ac(a2-6)Gal(b1-4)GlcNAc(b1-2)[Neu5Ac(a2-6)Gal(b1-4)GlcNAc(b1-4)]Man(a1-3)[GlcNAc(b1-4)][Neu5Ac(a2-6)Gal(b1-4)GlcNAc(b1-4)Man(a1-6)]Man(b1-4)GlcNAc(b1-4)GlcNAc
# Method in brief: as §1
# [23] = biological target: Neu5Ac(a2-6)Gal(b1-4)GlcNAc(b1-2)[Neu5Ac(a2-6)Gal(b1-4)GlcNAc(b1-6)]Man(a1-6)[Neu5Ac(a2-6)Gal(b1-4)GlcNAc(b1-2)Man(a1-3)][GlcNAc(b1-4)]Man(b1-4)GlcNAc(b1-4)GlcNAc
# Method in brief: as §1
# [24] = biological target: Neu5Ac(a2-6)Gal(b1-4)GlcNAc(b1-3)Gal(b1-3)GlcNAc
# Method in brief: as §1
# [25] = biological target: Neu5Ac(a2-6)Gal(b1-4)GlcNAc(b1-3)Gal(b1-4)GlcNAc
# Method in brief: as §1
# [26] = biological target: Neu5Ac(a2-6)Gal(b1-4)GlcNAc(b1-3)Gal(b1-4)GlcNAc(b1-2)Man(a1-3)[Neu5Ac(a2-6)Gal(b1-4)GlcNAc(b1-3)Gal(b1-4)GlcNAc(b1-2)Man(a1-6)]GalNAc
# Method in brief: as §1
# [27] = biological target: Neu5Ac(a2-6)Gal(b1-4)GlcNAc(b1-3)Gal(b1-4)GlcNAc(b1-3)Gal(b1-4)GlcNAc
# Method in brief: as §1
# [28] = biological target: Neu5Ac(a2-6)Gal(b1-4)GlcNAc(b1-3)Gal(b1-4)GlcNAc(b1-3)Gal(b1-4)GlcNAc(b1-2)Man(a1-3)[Neu5Ac(a2-6)Gal(b1-4)GlcNAc(b1-3)Gal(b1-4)GlcNAc(b1-3)Gal(b1-4)GlcNAc(b1-2)Man(a1-6)]GalNAc
# Method in brief: as §1
# [29] = biological target: Neu5Ac(a2-6)Gal(b1-4)GlcNAc(b1-3)Gal(b1-4)GlcNAc(b1-3)GalNAc
# Method in brief: as §1
# [30] = biological target: Neu5Ac(a2-6)Gal(b1-4)GlcNAc(b1-3)Gal(b1-4)GlcNAc(b1-3)[Neu5Ac(a2-6)Gal(b1-4)GlcNAc(b1-3)Gal(b1-4)GlcNAc(b1-6)]GalNAc
# Method in brief: as §1
# [31] = biological target: Neu5Ac(a2-6)Gal(b1-4)GlcNAc(b1-3)Gal(b1-4)GlcNAc(b1-6)[Gal(b1-3)]GalNAc
# Method in brief: as §1
# [32] = biological target: Neu5Ac(a2-6)Gal(b1-4)GlcNAc(b1-3)Gal(b1-4)[Fuc(a1-3)]GlcNAc(b1-3)Gal(b1-4)[Fuc(a1-3)]GlcNAc
# Method in brief: as §1
# [33] = biological target: Neu5Ac(a2-6)Gal(b1-4)GlcNAc(b1-3)GalNAc
# Method in brief: as §1
# [34] = biological target: Neu5Ac(a2-6)Gal(b1-4)GlcNAc(b1-3)[Neu5Ac(a2-6)Gal(b1-4)GlcNAc(b1-6)]GalNAc
# Method in brief: as §1
# [35] = biological target: Neu5Ac(a2-6)Gal(b1-4)GlcNAc(b1-6)GalNAc
# Method in brief: as §1
binder,measurement,setting,value
"DCIR1 (Mus musculus), Q9QZ15 (protein) MASEITYAEVKFKNESNSLHTYSESPAAPREKPIRDLRKPGSPSLLLTSLMLLLLLLAITFLVAFIIYFQKYSQLLEEKKAAKNIMHNELNCTKSVSPMEDKVWSCCPKDWRLFGSHCYLVPTVSSSASWNKSEENCSRMGAHLVVIQSQEEQDFITGILDTHAAYFIGLWDTGHRQWQWVDQTPYEESITFWHNGEPSSGNEKCATIIYRWKTGWGWNDISCSLKQKSVCQMKKINL",glycan array binding signal (z-score),Neu5Ac(a2-3)GalNAc,-0.723
same,glycan array binding signal (z-score),[1],0.325
same,glycan array binding signal (z-score),[2],-0.774
same,glycan array binding signal (z-score),[3],-0.784
same,glycan array binding signal (z-score),[4],-0.678
same,glycan array binding signal (z-score),[5],-0.067
same,glycan array binding signal (z-score),Neu5Ac(a2-6)Gal,0.531
same,glycan array binding signal (z-score),[6],0.196
same,glycan array binding signal (z-score),Neu5Ac(a2-6)Gal(b1-4)Glc,-0.693
same,glycan array binding signal (z-score),[7],-0.229
same,glycan array binding signal (z-score),[8],0.311
same,glycan array binding signal (z-score),[9],0.019
same,glycan array binding signal (z-score),[10],0.394
same,glycan array binding signal (z-score),[11],-0.842
same,glycan array binding signal (z-score),[12],-0.941
same,glycan array binding signal (z-score),[13],0.041
same,glycan array binding signal (z-score),[14],-0.847
same,glycan array binding signal (z-score),[15],-0.079
same,glycan array binding signal (z-score),[16],0.371
same,glycan array binding signal (z-score),[17],1.82
same,glycan array binding signal (z-score),[18],-0.16
same,glycan array binding signal (z-score),[19],2.04
same,glycan array binding signal (z-score),[20],-1.19
same,glycan array binding signal (z-score),[21],-0.823
same,glycan array binding signal (z-score),[22],-1.19
same,glycan array binding signal (z-score),[23],-1.08
same,glycan array binding signal (z-score),[24],-1.01
same,glycan array binding signal (z-score),[25],-0.209
same,glycan array binding signal (z-score),[26],-0.099
same,glycan array binding signal (z-score),[27],0.176
same,glycan array binding signal (z-score),[28],0.103
same,glycan array binding signal (z-score),[29],-0.959
same,glycan array binding signal (z-score),[30],0.286
same,glycan array binding signal (z-score),[31],-0.3
same,glycan array binding signal (z-score),[32],-0.61
same,glycan array binding signal (z-score),[33],-0.193
same,glycan array binding signal (z-score),[34],-0.929
same,glycan array binding signal (z-score),[35],0.358

# Reformatted: results already given
binder | measurement | setting | value
DCIR1 (Mus musculus), Q9QZ15 (protein) MASEITYAEVKFKNESNSLHTYSESPAAPREKPIRDLRKPGSPSLLLTSLMLLLLLLAITFLVAFIIYFQKYSQLLEEKKAAKNIMHNELNCTKSVSPMEDKVWSCCPKDWRLFGSHCYLVPTVSSSASWNKSEENCSRMGAHLVVIQSQEEQDFITGILDTHAAYFIGLWDTGHRQWQWVDQTPYEESITFWHNGEPSSGNEKCATIIYRWKTGWGWNDISCSLKQKSVCQMKKINL | glycan array binding signal (z-score) | [8] | 0.311
same | glycan array binding signal (z-score) | [9] | 0.019
same | glycan array binding signal (z-score) | [10] | 0.394
same | glycan array binding signal (z-score) | [11] | -0.842
same | glycan array binding signal (z-score) | [12] | -0.941
same | glycan array binding signal (z-score) | [13] | 0.041
same | glycan array binding signal (z-score) | [14] | -0.847
same | glycan array binding signal (z-score) | [15] | -0.079
